This assay addresses C-terminal truncated DnaA with histidine tag (HisAΔCt), expressed in surrogate E. coli (D. radiodurans). The assay can be described thus: co-IP; surrogate E. coli co-expressing PprA-C18 and HisAΔCt; total proteins precipitated with antibodies against polyhistidine, detection with antibodies against T18.

These are yes or no findings as the source states them, for the method shown. In cells and extracts the contact can be indirect. A result given as binding can be weak or reduced; the word gives no strength. Where a sequence is shown, tags or fusion partners need not be part of it.

B1: recombinant PprA (histidine-tagged PprA, His-PprA), purified (natural protein, D. radiodurans, UniProt O32504 1-300, looked up)
chain: MLPLAFLICSGHNKGSMARAKAKDQTDGIYAAFDTLMSTAGVDSQIAALAASEADAGTLDAALTQSLQEAQGRWGLGLHHLRHEARLTDDGDIEILTDGRPSARVSEGFGALAQAYAPMQALDERGLSQWAALGEGYRAPGDLPLAQLKVLIEHARDFETDWSAGRGETFQRVWRKGDTLFVEVARPASAEAALSDAAWDVIASIKDRAFQRELMRRSEKDGMLGALLGARHAGAKANLAQLPEAHFTVQAFVQTLSGAAARNAEEYRAALKTAAAALEEYQGVTTRQLSEVLRHGLRES
For the molecule B1, the binding entry is “binds”.

For the origin of these results see PMC7988490, “Molecular insights into replication initiation in a multipartite genome harboring bacterium Deinococcus radiodurans” (The Journal of Biological Chemistry, 2020).
